The supplement of paper PMC8728848
The list shows a part of the results.

Experiments:
Assay in all cases: glycan array binding signal (z-score within array); higher = stronger binding
Conditions in all cases: glycan notation: IUPAC condensed, linker removed
[1] = biological target: GalNAc(b1-4)GlcNAc(b1-2)Man
Outline: (§1)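 Glycan array data were curated from 3228 arrays in the Consortium for Functional Glycomics database and kept only where the protein sequence was available. Glycan names were converted to IUPAC-condensed notation, and columns mapping to the same glycan were averaged. The binding signal is a within-array Z-score, averaged across arrays of the same protein sequence at different concentrations or buffers and across linkers. Negative Z-scores can be read as non-binding.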

[2] = biological target: GalNAc(b1-4)GlcNAc(b1-2)Man(a1-3)[GalNAc(b1-4)GlcNAc(b1-2)Man(a1-6)]Man(b1-4)GlcNAc(b1-4)GlcNAc
Outline: as §1

[3] = biological target: GalNAc(b1-4)GlcNAc(b1-3)GalNAc(b1-4)GlcNAc
Outline: as §1

GalNAc(b1-4)GlcNAc6S = biological target: GalNAc(b1-4)GlcNAc6S
Outline: as §1

GalNAc(b1-6)GalNAc = biological target: GalNAc(b1-6)GalNAc
Outline: as §1

GalNAc3S(b1-4)GlcNAc = biological target: GalNAc3S(b1-4)GlcNAc
Outline: as §1

GalNAc3S(b1-4)GlcNAc3S = biological target: GalNAc3S(b1-4)GlcNAc3S
Outline: as §1

[4] = biological target: GalNAc3S(b1-4)[Fuc(a1-3)]GlcNAc
Outline: as §1

GalNAc4S6S(b1-4)GlcNAc = biological target: GalNAc4S6S(b1-4)GlcNAc
Outline: as §1

GalNAc6S(b1-4)GlcNAc = biological target: GalNAc6S(b1-4)GlcNAc
Outline: as §1

Glc(a1-4)Glc = biological target: Glc(a1-4)Glc
Outline: as §1

[5] = biological target: Glc(a1-4)Glc(a1-4)Glc(a1-4)Glc
Outline: as §1

Glc(a1-6)Glc(a1-6)Glc = biological target: Glc(a1-6)Glc(a1-6)Glc
Outline: as §1

[6] = biological target: Glc(a1-6)Glc(a1-6)Glc(a1-6)Glc
Outline: as §1

Glc(b1-4)Glc = biological target: Glc(b1-4)Glc
Outline: as §1

Glc(b1-6)Glc = biological target: Glc(b1-6)Glc
Outline: as §1

GlcA(b1-3)Gal = biological target: GlcA(b1-3)Gal
Outline: as §1

GlcA(b1-3)GlcNAc = biological target: GlcA(b1-3)GlcNAc
Outline: as §1

GlcA(b1-6)Gal = biological target: GlcA(b1-6)Gal
Outline: as §1

[7] = biological target: GlcA3S(b1-3)Gal(b1-4)GlcNAc(b1-2)Man
Outline: as §1

[8] = biological target: GlcA3S(b1-3)Gal(b1-4)GlcNAc(b1-3)Gal(b1-4)Glc
Outline: as §1

[9] = biological target: GlcNAc(a1-3)Gal(b1-4)GlcNAc
Outline: as §1

[10] = biological target: GlcNAc(a1-4)Gal(b1-3)GlcNAc
Outline: as §1

[11] = biological target: GlcNAc(a1-4)Gal(b1-4)GalNAc
Outline: as §1

[12] = biological target: GlcNAc(a1-4)Gal(b1-4)GlcNAc
Outline: as §1

[13] = biological target: GlcNAc(a1-4)Gal(b1-4)GlcNAc(b1-3)Gal(b1-4)Glc
Outline: as §1

[14] = biological target: GlcNAc(a1-4)Gal(b1-4)GlcNAc(b1-3)Gal(b1-4)GlcNAc
Outline: as §1

[15] = biological target: GlcNAc(a1-4)Gal(b1-4)GlcNAc(b1-3)Gal(b1-4)GlcNAc(b1-3)Gal(b1-4)GlcNAc
Outline: as §1

[16] = biological target: GlcNAc(a1-4)Gal(b1-4)GlcNAc(b1-3)Gal(b1-4)[Fuc(a1-3)]GlcNAc(b1-3)Gal(b1-4)[Fuc(a1-3)]GlcNAc
Outline: as §1

[17] = biological target: GlcNAc(a1-6)Gal(b1-4)GlcNAc
Outline: as §1

[18] = biological target: GlcNAc(b1-2)Gal(b1-3)GalNAc
Outline: as §1

[19] = biological target: GlcNAc(b1-2)Man(a1-3)[GlcNAc(b1-2)Man(a1-6)]Man(b1-4)GlcNAc(b1-4)GlcNAc
Outline: as §1

[20] = biological target: GlcNAc(b1-2)Man(a1-3)[GlcNAc(b1-2)Man(a1-6)]Man(b1-4)GlcNAc(b1-4)[Fuc(a1-6)]GlcNAc
Outline: as §1

[21] = biological target: GlcNAc(b1-2)Man(a1-3)[GlcNAc(b1-4)][GlcNAc(b1-2)Man(a1-6)]Man(b1-4)GlcNAc(b1-4)GlcNAc
Outline: as §1

[22] = biological target: GlcNAc(b1-2)Man(a1-3)[GlcNAc(b1-4)][GlcNAc(b1-2)Man(a1-6)]Man(b1-4)GlcNAc(b1-4)[Fuc(a1-6)]GlcNAc
Outline: as §1

[23] = biological target: GlcNAc(b1-2)[GlcNAc(b1-4)]Man(a1-3)[GlcNAc(b1-2)Man(a1-6)]Man(b1-4)GlcNAc(b1-4)GlcNAc
Outline: as §1

[24] = biological target: GlcNAc(b1-2)[GlcNAc(b1-4)]Man(a1-3)[GlcNAc(b1-4)][GlcNAc(b1-2)Man(a1-6)]Man(b1-4)GlcNAc(b1-4)GlcNAc
Outline: as §1

[25] = biological target: GlcNAc(b1-2)[GlcNAc(b1-4)]Man(a1-3)[GlcNAc(b1-4)][GlcNAc(b1-2)[GlcNAc(b1-6)]Man(a1-6)]Man(b1-4)GlcNAc(b1-4)GlcNAc
Outline: as §1

[26] = biological target: GlcNAc(b1-2)[GlcNAc(b1-4)]Man(a1-3)[GlcNAc(b1-4)][GlcNAc(b1-2)[GlcNAc(b1-6)]Man(a1-6)]Man(b1-4)GlcNAc(b1-4)[Fuc(a1-6)]GlcNAc
Outline: as §1

[27] = biological target: GlcNAc(b1-2)[GlcNAc(b1-6)]Man(a1-6)[GlcNAc(b1-2)Man(a1-3)]Man(b1-4)GlcNAc(b1-4)GlcNAc
Outline: as §1

[28] = biological target: GlcNAc(b1-2)[GlcNAc(b1-6)]Man(a1-6)[GlcNAc(b1-2)Man(a1-3)]Man(b1-4)GlcNAc(b1-4)[Fuc(a1-6)]GlcNAc
Outline: as §1

[29] = biological target: GlcNAc(b1-2)[GlcNAc(b1-6)]Man(a1-6)[GlcNAc(b1-4)][GlcNAc(b1-2)Man(a1-3)]Man(b1-4)GlcNAc(b1-4)GlcNAc
Outline: as §1

GlcNAc(b1-3)Fuc = biological target: GlcNAc(b1-3)Fuc
Outline: as §1

GlcNAc(b1-3)Gal = biological target: GlcNAc(b1-3)Gal
Outline: as §1

[30] = biological target: GlcNAc(b1-3)Gal(b1-3)GalNAc
Outline: as §1

B1: MXA PilAct-eGFP (Myxococcus xanthus), Q59589 (protein)
chain: MRVSRFNPRNRGFTLIELMIVVAIIGILAAIAIPNFIKFQARSKQSEAKTNLKALYTAQKSFFSEKDRYSDFANEIGFAPERGNRYGYRVSAAAGDCEVRNAADLPVPAAGVPCISNDSFRFGANSAIDDPTPVVARFVPQGAAGWNTTLGVQPTIADCPNCNFFAGARGNADNEATFDDWVIAGFEGSGQVGPCSEAGNVASGTPYNTRNDVACDGAAQ
[1]
  glycan array binding signal (z-score): -1.27
[2]
  glycan array binding signal (z-score): -0.271
[3]
  glycan array binding signal (z-score): -0.708
GalNAc(b1-4)GlcNAc6S
  glycan array binding signal (z-score): -0.68
GalNAc(b1-6)GalNAc
  glycan array binding signal (z-score): -0.528
GalNAc3S(b1-4)GlcNAc
  glycan array binding signal (z-score): -1.2
GalNAc3S(b1-4)GlcNAc3S
  glycan array binding signal (z-score): -1.4
[4]
  glycan array binding signal (z-score): -0.368
GalNAc4S6S(b1-4)GlcNAc
  glycan array binding signal (z-score): -1.04
GalNAc6S(b1-4)GlcNAc
  glycan array binding signal (z-score): 0.26
Glc(a1-4)Glc
  glycan array binding signal (z-score): -0.029
[5]
  glycan array binding signal (z-score): -0.314
Glc(a1-6)Glc(a1-6)Glc
  glycan array binding signal (z-score): -0.432
[6]
  glycan array binding signal (z-score): -0.924
Glc(b1-4)Glc
  glycan array binding signal (z-score): -0.326
Glc(b1-6)Glc
  glycan array binding signal (z-score): 1.37
GlcA(b1-3)Gal
  glycan array binding signal (z-score): 0.781
GlcA(b1-3)GlcNAc
  glycan array binding signal (z-score): -0.977
GlcA(b1-6)Gal
  glycan array binding signal (z-score): -0.632
[7]
  glycan array binding signal (z-score): 1.26
[8]
  glycan array binding signal (z-score): 0.578
[9]
  glycan array binding signal (z-score): -0.245
[10]
  glycan array binding signal (z-score): 0.196
[11]
  glycan array binding signal (z-score): 0.004
[12]
  glycan array binding signal (z-score): 0.559
[13]
  glycan array binding signal (z-score): -1.08
[14]
  glycan array binding signal (z-score): -1.21
[15]
  glycan array binding signal (z-score): 0.596
[16]
  glycan array binding signal (z-score): 1.45
[17]
  glycan array binding signal (z-score): -0.059
[18]
  glycan array binding signal (z-score): -0.873
[19]
  glycan array binding signal (z-score): 0.002
[20]
  glycan array binding signal (z-score): 1.93
[21]
  glycan array binding signal (z-score): -0.621
[22]
  glycan array binding signal (z-score): 0.749
[23]
  glycan array binding signal (z-score): -0.242
[24]
  glycan array binding signal (z-score): -0.022
[25]
  glycan array binding signal (z-score): 0.285
[26]
  glycan array binding signal (z-score): -1.52
[27]
  glycan array binding signal (z-score): 1.06
[28]
  glycan array binding signal (z-score): 0.675
[29]
  glycan array binding signal (z-score): -0.556
GlcNAc(b1-3)Fuc
  glycan array binding signal (z-score): 0.003
GlcNAc(b1-3)Gal
  glycan array binding signal (z-score): -0.839
[30]
  glycan array binding signal (z-score): 0.175
